{"source": "paper PMC2944038", "about": "(Biochemical pharmacology, 2010)", "key": {"[1]": {"molecular_target": "T1, human apical sodium-dependent bile acid transporter (ASBT; SLC10A2) (Homo sapiens, UniProt Q12908)", "T1 sequence (Q12908 1-348)": "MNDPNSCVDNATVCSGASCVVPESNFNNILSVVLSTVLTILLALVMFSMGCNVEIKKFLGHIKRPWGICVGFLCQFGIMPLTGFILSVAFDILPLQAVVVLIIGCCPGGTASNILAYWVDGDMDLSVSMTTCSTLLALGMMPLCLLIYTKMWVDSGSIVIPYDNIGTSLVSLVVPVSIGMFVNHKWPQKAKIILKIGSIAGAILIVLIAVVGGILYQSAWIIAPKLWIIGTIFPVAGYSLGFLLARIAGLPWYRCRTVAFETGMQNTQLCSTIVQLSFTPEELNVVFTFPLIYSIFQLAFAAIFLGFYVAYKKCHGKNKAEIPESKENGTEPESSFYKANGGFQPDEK", "test": "ASBT inhibition: taurocholate uptake into ASBT-MDCK cells", "assay_type": "cell-based", "settings": "with consideration of cytotoxicity"}, "in vitro": {"test": "in vitro", "settings": "dog"}}, "data": [{"smiles": "COC(=O)C1=C(C)NC(C)=C(C(=O)OC)C1c1ccccc1[N+](=O)[O-]", "note": "[Nifedipine, nifedipine]", "values": [{"measurement": "ASBT inhibitor", "setting": "[1]", "result": "only inhibited ASBT"}, {"measurement": "cytotoxicity in MDCK cells (in words)", "setting": "MDCK cells", "result": "cytotoxic to MDCK cells"}, {"measurement": "viability", "setting": "in vitro", "result": 67.7, "unit": "%"}]}]}
